Test results published in PMC10585954.
For at least one entry, the source does not settle the construct or the ends of the probe. For some assays here: A weaker result is weaker than the reference pair of the same experiment. For some assays here: At least one verdict was read from the data and is not stated in words by the source.

What was measured:
[1] = target: alpha-synuclein aggregates (sonicated, in vitro) (UniProt P37840); test: single-molecule pull-down (APSiMPull), antibody 211 detection; conditions: PBS-T (0.05% Tween 20, from potassium-rich Rockland MB-075-1000), 10 nM biotinylated aptamer on NeutrAvidin/PEG coverslip, recombinant protein, folded or branched DNA
[2] = target: alpha-synuclein aggregates in human serum (Homo sapiens) (UniProt P37840); test: as above; conditions: human serum, 90 min, mean spots per FoV 200 +/- 100 (PD), 120 +/- 60 (control); PBS-T (0.05% Tween 20, from potassium-rich Rockland MB-075-1000); 10 nM biotinylated aptamer on NeutrAvidin/PEG coverslip; native protein; label: biotin (capture); folded or branched DNA
[3] = target: amyloid-beta aggregates in human serum (Homo sapiens) (UniProt P05067); test: single-molecule pull-down (APSiMPull), antibody 6E10 detection; conditions: human serum, 90 min, mean spots per FoV 140 +/- 120 (PD), 150 +/- 100 (control); PBS-T (0.05% Tween 20, from potassium-rich Rockland MB-075-1000); 10 nM biotinylated aptamer on NeutrAvidin/PEG coverslip; native protein; label: biotin (capture); folded or branched DNA
[4] = target: amyloid-beta 1-40 aggregates (sonicated, in vitro) (UniProt P05067); test: as above; conditions: PBS-T (0.05% Tween 20, from potassium-rich Rockland MB-075-1000), 10 nM biotinylated aptamer on NeutrAvidin/PEG coverslip, commercial protein, residues 672-711, folded or branched DNA
[5] = target: amyloid-beta aggregates in human serum (Homo sapiens) (UniProt P05067); test: single-molecule pull-down (APSiMPull); conditions: only the correct capture aptamer gives a strong signal, PBS-T (0.05% Tween 20, from potassium-rich Rockland MB-075-1000), 10 nM biotinylated aptamer on NeutrAvidin/PEG coverslip, native protein, label: biotin, folded or branched DNA
[6] = target: alpha-synuclein aggregates in human serum (Homo sapiens) (UniProt P37840); test: single-molecule pull-down (APSiMPull); conditions: only the correct capture aptamer gives a strong signal, PBS-T (0.05% Tween 20, from potassium-rich Rockland MB-075-1000), 10 nM biotinylated aptamer on NeutrAvidin/PEG coverslip, native protein, label: biotin, folded or branched DNA

GCCTGTGGTGTTGGGGCGGGTGCGT [T-SO508 aptamer]
binding result ([1]; sonicated aggregates, 30 min, concentration-dependent until saturation, prefers small aggregates over mature fibrils, label: biotin (capture)): binds | binding result [2]: binds | binding result [3]: binds | binding result ([4]; sonicated aggregates, 30 min, concentration-dependent until saturation, label: biotin (capture)): binds

GGGTTAGGGTTAGGGTTAGGGTTT [control aptamer (G-quadruplex)]
binding result [5]: binds more weakly | binding result [6]: binds more weakly | binding result ([1]; 500 nM aggregates, much less signal than T-SO508, label: biotin): binds more weakly | binding result ([4]; 125 nM aggregates, much less signal than T-SO508, label: biotin): binds more weakly
